PubChem BioAssay AID1259424 | University of Nebraska Medical Center | 2018
The whole screen tested about 14,000 reagents; shown is an unselected part. 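Higher correlation or smaller distance means closer resemblance to KSR1 loss; control wells, including KSR1 knockdowns, recur on many plates.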 Not all columns of the deposit are shown. Not stated in the record: the time to read-out.

- Aim: 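Rank knockdowns across the genome by resemblance to the KSR1 depletion profile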 (primary screen)
- Cells: human HCT116 colon cancer cells
- Reagents: siRNA pool against human genes, 50 nM
- Measurement: 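Six signature mRNAs by branched-DNA multiplex assay, scaled to two housekeeping genes and non-targeting median, log2; matched to mean KSR1 knockdown profile by Pearson correlation and euclidean distance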
- Scale: mean correlation with KSR1 profile: higher = expression change more like KSR1 knockdown

DNAJC22
- mean correlation with KSR1 profile: -0.418

MAGOH
- mean correlation with KSR1 profile: -0.407

CNGB1
- mean correlation with KSR1 profile: -0.623

TMED1
- mean correlation with KSR1 profile: -0.367

MEGF8
- mean correlation with KSR1 profile: 0.168

SLC22A17
- mean correlation with KSR1 profile: -0.654

LSM14A
- mean correlation with KSR1 profile: -0.251

TYROBP
- mean correlation with KSR1 profile: 0.0892

CNTN5
- mean correlation with KSR1 profile: -0.807

HOXC10
- mean correlation with KSR1 profile: 0.247

PLEKHB2
- mean correlation with KSR1 profile: -0.202

CD1C
- mean correlation with KSR1 profile: -0.0815

MTARC2
- mean correlation with KSR1 profile: -0.826

CHN1
- mean correlation with KSR1 profile: -0.189

FXYD5
- mean correlation with KSR1 profile: -0.551

STRN
- mean correlation with KSR1 profile: 0.735

TMEM38A
- mean correlation with KSR1 profile: -0.782

MFRP
- mean correlation with KSR1 profile: 0.67

PDGFRB
- mean correlation with KSR1 profile: -0.0104

CCT5
- mean correlation with KSR1 profile: 0.0545

DYNLT2
- mean correlation with KSR1 profile: -0.181

MAK16
- mean correlation with KSR1 profile: 0.684

GPM6A
- mean correlation with KSR1 profile: -0.623

IDI2-AS1
- mean correlation with KSR1 profile: -0.332

NOA1
- mean correlation with KSR1 profile: 0.492

NGB
- mean correlation with KSR1 profile: -0.569

DET1
- mean correlation with KSR1 profile: -0.512

MAST2
- mean correlation with KSR1 profile: -0.655
